The values that follow come from PubChem BioAssay (NCATS).

This assay is described as follows: qHTS for identification of novel therapeutic agents for treatment of microphthalmiaassociated transcription factor (MiT) renal cell carcinoma (RCC) (AID 1963991). The conditions noted are these: CellTiter-Glo, 48 h; for z-score: stronger effect = lower value. The procedure, abridged:
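Three TFE3-fusion RCC lines (UOK109, UOK124, UOK145), 500 cells/well in complete medium, were treated with MIPE 4.0 compounds for 48 hours at 37 C. Viability was by CellTiter-Glo luminescence, normalized to DMSO (100%) and empty wells (0%); curves fitted over 11 concentrations.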
(qHTS replaces the single test concentration by a dilution series.)

Setting [1] is: TFE3-RCC UOK109 viability, measured here: UOK109 Z-AUC.
Where [2] appears, read: TFE3-RCC viability, measured here: UOK124 Z-AUC.
Setting [3] is: TFE3-RCC viability, measured here: UOK145 Z-AUC.
Where [4] appears, read: TFE3-RCC viability, measured here: UOK145 cell viability.
Where [5] appears, read: TFE3-RCC viability, measured here: UOK124 cell viability.

Structures are written as SMILES. The list shows a part of the results. The main result of the screen is listed elsewhere. These columns were measured beside it and carry no call. The list favours compounds with an active or inconclusive main result. The note in brackets gives the kind of curve behind each potency; many fits are weak.

For orientation: AC50 means the concentration giving half of the maximal activity seen. Consider `CC(C)(C)NC(=O)[C@H]1CC[C@H]2[C@@H]3CC[C@H]4NC(=O)C=C[C@]4(C)[C@H]3CC[C@]12C`, for which the z-score reads like this: under setting [1], -0.507; under setting [2], -0.00295; under setting [3], -0.715. The AC50 under setting [4] was 2.96 µM [falling, full curve].
For the compound `O=C(Nc1cc(Cl)cc2c1[nH]c1cnccc12)c1cccnc1`, the z-score is, setting by setting: under setting [1], -1.08; under setting [2], 0.527; under setting [3], 0.681. The concentration at half-maximal activity (AC50) under setting [4] was 29.6 µM [falling, single point].
`COC(=O)C=CC(=O)OC`: the z-score under setting [1] was -1.38, the z-score under setting [2] turned out to be 0.624 and the z-score under setting [3] is -0.195. For the same compound, the concentration at half-maximal activity (AC50) under setting [4] is 13.2 µM [falling, partial curve].
For the compound `CCNC(=O)Nc1ccc(Oc2ncnc(N)c2C=NOC)cc1Cl`, the z-score by setting is: under setting [1], 0.293; under setting [2], 0.11; under setting [3], 0.358. Moreover, the AC50 under setting [4] is 23.5 µM [falling, single point].
`Cn1c(N2CCCCS2(=O)=O)nc(C(=O)NCc2ccc(F)cc2)c(O)c1=O`: the z-score is 0.401 under setting [1], -0.0032 under setting [2] and 1.04 under setting [3]. The AC50 under setting [5] is 2.64 µM [falling, full curve, poor fit].
Take `c1cc(N[C@@H]2CCNC2)nc(-c2cnc3ccc(-c4cn[nH]c4)cn23)c1`: the z-score is, setting by setting: under setting [1], -0.901; under setting [2], 0.423; under setting [3], -0.336. Also, under setting [4], the AC50 is 37.2 µM [falling, single point].
`N#Cc1ccc(Oc2ccc3c(c2)COB3O)cc1`: the z-score is, setting by setting: under setting [1], 0.343; under setting [2], 0.696; under setting [3], 0.613. Moreover, the half-maximal activity concentration (AC50) under setting [5] is 23.5 µM [falling, partial curve, poor fit].
Regarding `Nc1nc(F)nc2c1ncn2[C@@H]1O[C@H](COP(=O)(O)O)[C@@H](O)[C@H]1O`, the z-score runs as follows: under setting [1], 0.417; under setting [2], 0.656; under setting [3], 0.192. The AC50 under setting [4] was 13.2 µM [falling, partial curve].
In turn, `CC(=O)O[C@]1(C(C)=O)CC[C@H]2[C@@H]3C=C(Cl)C4=CC(=O)[C@@H]5C[C@H]5[C@]4(C)[C@@H]3CC[C@@]21C` yielded a z-score under setting [1] of -1.46, a z-score under setting [2] of 0.662 and a z-score under setting [3] of 0.193. In addition, the AC50 under setting [4] was 33.2 µM [falling, single point].
For the compound `COc1ccc(-c2cc(=O)c3c(O)cc(O[C@@H]4O[C@H](CO[C@@H]5O[C@@H](C)[C@H](O)[C@@H](O)[C@@H]5O)[C@@H](O)[C@H](O)[C@@H]4O)cc3o2)cc1O`, the z-score is, setting by setting: under setting [1], 0.594; under setting [2], -1.26; under setting [3], 0.456. Besides, the AC50 under setting [4] is 18.7 µM [falling, partial curve, poor fit].
Consider `Fc1ccc(Cl)cc1-c1nc(Nc2ccncc2)c2nccnc2n1`, for which the z-score came out at 0.65 under setting [1], 0.273 under setting [2] and 0.208 under setting [3]. The AC50 under setting [5] is 3.32 µM [falling, partial curve, poor fit].
On to `Nc1nc(-c2nn(Cc3ccccc3F)c3ncccc23)nc(N)c1N1CCOCC1`, for which the z-score by setting is: under setting [1], 0.317; under setting [2], 0.451; under setting [3], 0.233. The AC50 under setting [5] is 37.2 µM [falling, partial curve, poor fit].
On to `N#CC1(c2ccc(NC(=O)c3cccnc3NCc3ccncc3)cc2)CCCC1`, for which the z-score runs as follows: under setting [1], 0.0527; under setting [2], 0.0743; under setting [3], 0.04. The AC50 under setting [5] was 29.6 µM [falling, single point].
On to `O=C1CCCC(=O)C1C(=O)c1ccc(C(F)(F)F)cc1[N+](=O)[O-]`, for which the z-score was 0.771 under setting [1], 0.281 under setting [2] and 0.605 under setting [3]. The AC50 under setting [4] is 26.4 µM [falling, partial curve, poor fit].
Turning to `C[C@]12CC[C@@H]3c4ccc(O)cc4CC[C@H]3[C@H]1[C@@H](O)[C@@H](O)[C@H]2O`, the z-score is -0.349 under setting [1], 0.408 under setting [2] and 0.219 under setting [3]. Further, under setting [4], the AC50 was 16.6 µM [falling, partial curve].
For `CNC(=O)[C@H](CC1=CN=C2C=CCC=C12)NC(=O)[C@@H](CC(=O)NO)CC(C)C`, the z-score was -1.79 under setting [1], 1.12 under setting [2] and -0.249 under setting [3]. Moreover, under setting [4], the concentration at half-maximal activity (AC50) was 4.18 µM [falling, partial curve, poor fit].
In the case of `CC(C)(F)C[C@H](N[C@@H](c1ccc(-c2ccc(S(C)(=O)=O)cc2)cc1)C(F)(F)F)C(=O)NC1(C#N)CC1`, the z-score by setting is: under setting [1], -1.3; under setting [2], 0.497; under setting [3], -0.817. Also, under setting [4], the AC50 is 0.132 µM [rising, full curve, poor fit].
Consider `Nc1nccc(-c2ccc3noc(-c4ccc(Cl)cc4)c3c2)n1`, for which the z-score by setting is: under setting [1], 0.512; under setting [2], 0.588; under setting [3], 0.599. Also, under setting [4], the half-maximal activity concentration (AC50) was 26.4 µM [falling, single point].
As to `COc1cc(NS(=O)(=O)c2ccc(N)cc2)nc(OC)n1`, the z-score by setting is: under setting [1], 1.11; under setting [2], 0.661; under setting [3], -1. Moreover, the AC50 under setting [4] was 0.209 µM [rising, full curve].
Regarding `Cc1ccc(/C=N/NC(=O)c2ccccc2Oc2ccccc2)o1`, the z-score amounted to 0.427 under setting [1], 0.604 under setting [2] and 0.235 under setting [3]. The AC50 under setting [5] was 29.6 µM [falling, single point].
For the compound `CON=C(C(=O)N[C@@H]1C(=O)N2C(C(=O)O)=C(CSC(=O)c3ccco3)CS[C@H]12)c1csc(N)n1`, the z-score was determined as 1.28 under setting [1], 0.808 under setting [2] and 1.52 under setting [3]. Besides, the AC50 under setting [4] is 37.2 µM [falling, single point].
Turning to `COc1ccc2c(OCc3nnc4ccc(-c5ccccc5)nn34)ccnc2c1`, the z-score was found to be 0.891 under setting [1], 1.25 under setting [2] and 0.837 under setting [3]. In addition, the AC50 under setting [5] was 0.00187 µM [rising, full curve, poor fit].
